{
  "source": "patent US5955632A",
  "about": "“Seco-d steroids active on the cardiovascular system, processes for their preparation and pharmaceutical compositions containing them” (Sigma-Tau Industrie Farmaceutiche Riunite S.p.A., priority 1996, dated 1999)",
  "key": {"Na^+,K^+ -ATPase [1]": {"molecular_target": "T1, Na^+,K^+ -ATPase (Canis lupus familiaris, UniProt P50997)", "T1 construct": "from tissue; the cited Jorgensen 1974 method uses outer medulla of mammalian kidney (own knowledge)", "assay": "displacement of the specific ^3H-ouabain binding from the purified Na^+,K^+-ATPase receptor", "details": "^3H-ouabain displacement", "description": "(§1) To test the affinity for the receptor site of the Na^+,K^+ -ATPase and the agonist or antagonist activity on the enzyme, the following tests were used:\na) displacement of the specific ^3 H-ouabain binding from the Na^+,K^+ -ATPase receptor purified according to Jorghensen (Jorghensen P., BBA, 1974, 356, 36) and Erdmann (Erdmann E. et al., Arzneim. Forsh, 1984, 34, 1314);"}, "Na^+,K^+ -ATPase [2]": {"molecular_target": "T1, Na^+,K^+ -ATPase", "format": "biochemical", "details": "purified Na^+,K^+-ATPase, ^32P-ATP hydrolysis", "description": "as §1\nb) inhibition of the activity of the purified Na^+,K^+ -ATPase measured as % of hydrolysis of ^32 P-ATP in presence and in absence of the tested compound (Doucet A. et al., Am. J. Physiol., 1986, 251, F851)."}},
  "note": "Where a name gives a salt, the structure may show the parent alone. The name of at least one read-out is uncertain.",
  "data": [
    {"smiles": "C[C@@H](C/C=N/OCCN(C)C)[C@@]1(C)CC[C@H]2[C@@H](CC[C@@H]3C[C@@H](O)CC[C@@]32C)C1=O", "note": "[Comp. I-ag, E-17β-Methyl-15-[(2-dimethylaminoethoxy)imino]-5β-14,15-seco-3β-hydroxy-androstan-14-one oxalate]", "values": [
      {"measurement": "Binding ^3 H-Ouab. Displacement log IC50", "setting": "Na^+,K^+ -ATPase [1]", "value": 6.9},
      {"measurement": "Inhibitory Activity log IC50", "setting": "Na^+,K^+ -ATPase [2]", "value": 5.9}
    ]}
  ]
}
